Each structure is given as a SMILES string. The match of structure and compound is tentative.

Experiment [1] relates to zymostenol accumulation in EpiSC-derived OPCs (EBP). As to the kind of experiment: GC/MS-based sterol profiling, zymostenol accumulation. Conditions: read-out: mZymo GCMS EC50, 24 hours, 8 doses from 0.15 nM to 333 nM, listed as 124B*.
For experiment [2], the system named is EpiSC-derived OPCs. As to the kind of experiment: In vitro phenotypic screening of OPCs, MBP high-content imaging. As to conditions: read-out: mOPC EC50; percentage of MBP+ oligodendrocytes; 3 days; 0.5 nM to 1000 nM; listed as 124B*.

As for `CC(Cc1ccc(C2CCCCO2)c(Cl)c1)CN1CCC2(C1)CS(=O)(=O)C2` (single isomer, unassigned), the EC50 amounted to 14 nM in experiment [1] and 54 nM in experiment [2].

Values taken from patent US20240400579A1, “SPIROCYCLIC MODULATORS OF CHOLESTEROL BIOSYNTHESIS AND THEIR USE FOR PROMOTING REMYELINATION” (GENENTECH, INC., priority 2021, published 2024).
